About 210 (0.4%) of roughly 52,000 sequences were called active.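 Rule for the calls: active = gene whose silencing raises cell survival under the drug, median off-target-corrected z-score across its silencing RNAs 2 or more; inactive = the rest.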 Some of the results follow.

This assay is described as follows: Resistance to Poly (ADP-Ribose) Polymerase inhibitor: Gene Identification via Genome-wide siRNA Screen. To be noted: mouse BRCA2 R2336H ES cells, olaparib, CellTiter-Glo viability; hits give high values. An outline of the steps: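 Genome-wide siRNA screen (3 siRNAs/gene, 20 nM) in mouse ES cells carrying hypomorphic BRCA2 R2336H; olaparib 500 nM added 48 h post-transfection, CellTiter-Glo viability 72 h later. Normalized to plate-median negative control; MAD z-scores, gene median, seed-adjusted.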
GCUCAAUUCGGACAACAAGTT against Smad7: the z-score was inactive: 2.18.

Consider GGGUCAUGUAUAGUUUGUGTT against Dnajc8, for which the z-score is inactive: -1.51.

For CGUGAAAUAGAUGAUACCUTT against Cdc5l, the z-score was inactive: -0.394.

Regarding “GGAAUUGAACAAAACCAUCTT against 9830137M10Rik”, the z-score was inactive: 0.976.

Regarding GGAACGAACUCAUUAAAACTT against Abhd3, the z-score is inactive: 0.207.

In the case of CCCUCAGUUGGUCACAUGUTT against Brp44l, the z-score is inactive: 2.34.

“GGCAUCUUGACCUUGAAGUTT against 4732495G21Rik”: the z-score was inactive: -0.102.

In the case of CCAGCAUCUACUGUCUGACTT against Sstr1, the z-score is inactive: -1.73.

Consider CGGAGAAGUGACGUAUUCUTT against Pcdhga4, for which the z-score was inactive: 1.54.

Regarding “CCUUAAUCACCACCUUCAUTT against D730040F13Rik”, the z-score is inactive: 0.531.

GGUCACCUUAUAAUUGCCCTT against Btd: the z-score was inactive: -0.292.

“GGUCUGGAUGCUUUAGAAUTT against 9130005N14Rik”: the z-score is inactive: 0.472.

Turning to “GGGUUUGUUUCCAGGACAATT against E130308A19Rik”, the z-score was inactive: 0.0485.

As to “GCCAGUUCCUAUCUGGCUUTT against 4931428L18Rik”, the z-score is inactive: -0.75.

For GGUGAUCACUCUCUCUGAATT against Olfr187, the z-score is inactive: -0.153.

As for GCUUCAGGUCAGUCUCUUCTT against Olfr1042, the z-score is inactive: 0.109.

As to GCUCUCAUCAGACUUCGAGTT against Zfp202, the z-score is inactive: 0.288.

Consider GGCUUCUAUGUCAUAGGAATT against Olfr351, for which the z-score was inactive: 0.282.

As to CCAGAGGUCUCUAUUAAGATT against Cad, the z-score is inactive: -0.521.

Regarding GGGCAAGUCCAUCCAAGACTT against Pthlh, the z-score was inactive: 0.102.

With GCCAUCAUCUGGGUAGUGUTT against Olfr1494, the z-score is inactive: -0.735.

On to “CGAACCAAUGUCAACUUUCTT against 4933408F15”, for which the z-score is inactive: -0.953.

Consider GGCUGAUGGAAGAAUAUGATT against Actn2, for which the z-score is inactive: 1.38.

For the sequence GGAAGAUCCAUUUAAUGUATT against Eps15, the z-score was inactive: 0.349.

As for GGAAGCUACCCAGAUGGAUTT against AI841987, the z-score was inactive: 2.52.

With GGCAAAAUAAAGCAGUGGUTT against Mrps25, the z-score is inactive: -0.934.

For GGACAGUUCCUUCAGCACCTT against Bmf, the z-score is inactive: -0.185.

In the case of GGAUAAUGUCUCCUGCUUGTT against Plk3, the z-score was inactive: -0.834.

As to GCAUACGAAGGACAACCUGTT against Bspry, the z-score is inactive: -0.986.
